Results from the supplement of paper PMC10849652.
The other results are listed elsewhere or left out.

The chains behind the UniProt entries cited, without tags or fusion partners. Where a name states a change or a piece, a line headed by the entry shows the natural chain unless it says otherwise.
UniProt Q8IZH2: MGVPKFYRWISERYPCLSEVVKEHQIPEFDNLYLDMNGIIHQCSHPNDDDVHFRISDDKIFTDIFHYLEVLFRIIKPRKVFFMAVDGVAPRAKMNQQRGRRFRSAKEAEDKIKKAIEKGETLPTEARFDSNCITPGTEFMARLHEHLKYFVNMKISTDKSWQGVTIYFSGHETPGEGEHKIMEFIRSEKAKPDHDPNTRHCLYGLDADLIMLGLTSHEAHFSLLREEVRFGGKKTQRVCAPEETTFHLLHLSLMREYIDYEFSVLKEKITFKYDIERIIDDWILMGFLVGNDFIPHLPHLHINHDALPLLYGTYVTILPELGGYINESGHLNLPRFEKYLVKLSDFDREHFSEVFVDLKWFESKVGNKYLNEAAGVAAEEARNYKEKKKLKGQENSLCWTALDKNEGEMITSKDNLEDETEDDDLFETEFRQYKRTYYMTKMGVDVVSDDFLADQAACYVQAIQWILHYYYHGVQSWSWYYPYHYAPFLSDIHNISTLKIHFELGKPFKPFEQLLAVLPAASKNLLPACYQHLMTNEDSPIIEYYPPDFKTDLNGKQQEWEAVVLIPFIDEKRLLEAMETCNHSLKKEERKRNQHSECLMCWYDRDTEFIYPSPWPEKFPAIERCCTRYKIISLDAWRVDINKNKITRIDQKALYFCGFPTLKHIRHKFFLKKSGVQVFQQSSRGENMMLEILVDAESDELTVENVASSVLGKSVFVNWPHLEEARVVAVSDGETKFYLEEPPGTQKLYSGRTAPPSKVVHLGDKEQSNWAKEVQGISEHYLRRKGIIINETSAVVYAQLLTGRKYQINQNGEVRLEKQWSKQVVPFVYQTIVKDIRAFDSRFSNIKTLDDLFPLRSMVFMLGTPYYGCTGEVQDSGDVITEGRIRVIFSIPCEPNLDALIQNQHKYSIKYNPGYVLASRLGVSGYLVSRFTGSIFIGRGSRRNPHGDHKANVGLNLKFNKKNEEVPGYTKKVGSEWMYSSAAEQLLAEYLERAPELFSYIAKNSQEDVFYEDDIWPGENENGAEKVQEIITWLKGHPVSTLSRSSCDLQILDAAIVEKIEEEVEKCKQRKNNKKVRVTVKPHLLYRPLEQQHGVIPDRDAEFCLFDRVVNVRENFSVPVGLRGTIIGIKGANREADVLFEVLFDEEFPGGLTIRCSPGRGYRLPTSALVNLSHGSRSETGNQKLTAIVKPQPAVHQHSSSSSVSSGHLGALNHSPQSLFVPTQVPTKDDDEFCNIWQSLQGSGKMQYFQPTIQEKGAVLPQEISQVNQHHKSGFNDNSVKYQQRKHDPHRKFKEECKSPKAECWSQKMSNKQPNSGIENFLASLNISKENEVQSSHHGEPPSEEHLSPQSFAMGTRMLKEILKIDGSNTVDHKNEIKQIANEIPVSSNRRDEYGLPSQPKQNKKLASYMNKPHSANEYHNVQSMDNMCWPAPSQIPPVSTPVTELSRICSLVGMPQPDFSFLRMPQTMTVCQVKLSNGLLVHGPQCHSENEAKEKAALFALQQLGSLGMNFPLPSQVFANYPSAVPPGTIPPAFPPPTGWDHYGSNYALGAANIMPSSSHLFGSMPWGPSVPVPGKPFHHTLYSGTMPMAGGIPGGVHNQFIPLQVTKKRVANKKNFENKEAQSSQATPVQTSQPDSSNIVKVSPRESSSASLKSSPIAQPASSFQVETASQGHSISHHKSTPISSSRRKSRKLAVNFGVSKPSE
UniProt Q8WV99: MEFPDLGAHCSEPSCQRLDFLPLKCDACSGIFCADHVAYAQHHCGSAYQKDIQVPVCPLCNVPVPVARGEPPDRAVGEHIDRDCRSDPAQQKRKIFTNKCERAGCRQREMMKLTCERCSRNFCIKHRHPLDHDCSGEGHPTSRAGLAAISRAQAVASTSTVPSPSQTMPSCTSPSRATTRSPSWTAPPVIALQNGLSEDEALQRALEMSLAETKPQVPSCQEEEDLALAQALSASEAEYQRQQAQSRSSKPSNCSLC
UniProt Q9Y5A9: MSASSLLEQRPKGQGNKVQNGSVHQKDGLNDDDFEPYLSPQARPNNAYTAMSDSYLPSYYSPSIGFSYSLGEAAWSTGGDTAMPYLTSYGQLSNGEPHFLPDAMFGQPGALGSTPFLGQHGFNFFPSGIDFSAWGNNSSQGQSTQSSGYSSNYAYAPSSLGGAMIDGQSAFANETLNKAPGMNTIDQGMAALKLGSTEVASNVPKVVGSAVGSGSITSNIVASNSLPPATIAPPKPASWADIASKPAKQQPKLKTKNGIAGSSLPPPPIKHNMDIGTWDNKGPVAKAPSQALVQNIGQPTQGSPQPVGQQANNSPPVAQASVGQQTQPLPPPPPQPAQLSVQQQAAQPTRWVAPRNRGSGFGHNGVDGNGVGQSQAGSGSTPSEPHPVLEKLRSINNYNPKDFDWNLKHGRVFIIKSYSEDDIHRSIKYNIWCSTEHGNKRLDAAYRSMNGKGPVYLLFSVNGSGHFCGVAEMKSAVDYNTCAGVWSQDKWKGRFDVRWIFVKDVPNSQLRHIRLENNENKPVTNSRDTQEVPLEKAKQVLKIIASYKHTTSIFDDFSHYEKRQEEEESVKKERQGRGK
UniProt O95405: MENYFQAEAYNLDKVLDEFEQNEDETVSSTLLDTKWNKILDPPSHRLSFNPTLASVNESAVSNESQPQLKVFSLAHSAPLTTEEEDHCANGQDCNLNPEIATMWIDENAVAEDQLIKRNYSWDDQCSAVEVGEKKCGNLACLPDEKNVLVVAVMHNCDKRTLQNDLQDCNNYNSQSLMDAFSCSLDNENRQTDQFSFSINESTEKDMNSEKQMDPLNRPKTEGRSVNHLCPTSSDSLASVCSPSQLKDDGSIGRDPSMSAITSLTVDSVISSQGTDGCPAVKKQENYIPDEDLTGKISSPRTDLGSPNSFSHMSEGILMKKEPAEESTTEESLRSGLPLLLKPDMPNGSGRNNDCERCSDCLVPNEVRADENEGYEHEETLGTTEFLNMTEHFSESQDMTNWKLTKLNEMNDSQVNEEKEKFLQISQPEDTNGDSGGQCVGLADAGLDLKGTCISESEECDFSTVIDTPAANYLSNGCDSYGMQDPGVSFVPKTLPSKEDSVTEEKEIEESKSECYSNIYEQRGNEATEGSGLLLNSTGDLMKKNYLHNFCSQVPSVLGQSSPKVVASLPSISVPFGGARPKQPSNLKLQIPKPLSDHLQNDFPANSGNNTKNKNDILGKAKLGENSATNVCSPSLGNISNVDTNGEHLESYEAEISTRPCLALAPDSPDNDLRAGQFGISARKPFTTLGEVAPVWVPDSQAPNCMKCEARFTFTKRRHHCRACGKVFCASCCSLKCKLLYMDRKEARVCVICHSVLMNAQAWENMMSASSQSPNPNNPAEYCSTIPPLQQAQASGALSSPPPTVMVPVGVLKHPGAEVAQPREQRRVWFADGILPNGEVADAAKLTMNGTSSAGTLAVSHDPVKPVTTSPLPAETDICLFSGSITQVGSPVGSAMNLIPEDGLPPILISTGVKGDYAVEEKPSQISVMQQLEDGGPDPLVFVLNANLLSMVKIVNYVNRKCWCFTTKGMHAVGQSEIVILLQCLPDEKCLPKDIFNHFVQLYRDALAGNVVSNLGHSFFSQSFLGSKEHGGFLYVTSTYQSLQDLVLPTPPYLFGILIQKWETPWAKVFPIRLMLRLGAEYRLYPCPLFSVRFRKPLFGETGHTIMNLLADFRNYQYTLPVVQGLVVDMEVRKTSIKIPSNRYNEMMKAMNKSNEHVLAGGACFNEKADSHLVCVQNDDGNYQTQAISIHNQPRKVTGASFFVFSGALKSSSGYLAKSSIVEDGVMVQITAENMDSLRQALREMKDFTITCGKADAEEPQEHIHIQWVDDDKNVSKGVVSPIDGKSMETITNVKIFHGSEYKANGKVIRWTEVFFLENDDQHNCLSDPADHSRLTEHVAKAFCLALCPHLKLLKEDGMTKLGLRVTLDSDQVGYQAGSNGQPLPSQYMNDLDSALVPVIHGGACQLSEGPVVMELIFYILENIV
UniProt Q9UPT8: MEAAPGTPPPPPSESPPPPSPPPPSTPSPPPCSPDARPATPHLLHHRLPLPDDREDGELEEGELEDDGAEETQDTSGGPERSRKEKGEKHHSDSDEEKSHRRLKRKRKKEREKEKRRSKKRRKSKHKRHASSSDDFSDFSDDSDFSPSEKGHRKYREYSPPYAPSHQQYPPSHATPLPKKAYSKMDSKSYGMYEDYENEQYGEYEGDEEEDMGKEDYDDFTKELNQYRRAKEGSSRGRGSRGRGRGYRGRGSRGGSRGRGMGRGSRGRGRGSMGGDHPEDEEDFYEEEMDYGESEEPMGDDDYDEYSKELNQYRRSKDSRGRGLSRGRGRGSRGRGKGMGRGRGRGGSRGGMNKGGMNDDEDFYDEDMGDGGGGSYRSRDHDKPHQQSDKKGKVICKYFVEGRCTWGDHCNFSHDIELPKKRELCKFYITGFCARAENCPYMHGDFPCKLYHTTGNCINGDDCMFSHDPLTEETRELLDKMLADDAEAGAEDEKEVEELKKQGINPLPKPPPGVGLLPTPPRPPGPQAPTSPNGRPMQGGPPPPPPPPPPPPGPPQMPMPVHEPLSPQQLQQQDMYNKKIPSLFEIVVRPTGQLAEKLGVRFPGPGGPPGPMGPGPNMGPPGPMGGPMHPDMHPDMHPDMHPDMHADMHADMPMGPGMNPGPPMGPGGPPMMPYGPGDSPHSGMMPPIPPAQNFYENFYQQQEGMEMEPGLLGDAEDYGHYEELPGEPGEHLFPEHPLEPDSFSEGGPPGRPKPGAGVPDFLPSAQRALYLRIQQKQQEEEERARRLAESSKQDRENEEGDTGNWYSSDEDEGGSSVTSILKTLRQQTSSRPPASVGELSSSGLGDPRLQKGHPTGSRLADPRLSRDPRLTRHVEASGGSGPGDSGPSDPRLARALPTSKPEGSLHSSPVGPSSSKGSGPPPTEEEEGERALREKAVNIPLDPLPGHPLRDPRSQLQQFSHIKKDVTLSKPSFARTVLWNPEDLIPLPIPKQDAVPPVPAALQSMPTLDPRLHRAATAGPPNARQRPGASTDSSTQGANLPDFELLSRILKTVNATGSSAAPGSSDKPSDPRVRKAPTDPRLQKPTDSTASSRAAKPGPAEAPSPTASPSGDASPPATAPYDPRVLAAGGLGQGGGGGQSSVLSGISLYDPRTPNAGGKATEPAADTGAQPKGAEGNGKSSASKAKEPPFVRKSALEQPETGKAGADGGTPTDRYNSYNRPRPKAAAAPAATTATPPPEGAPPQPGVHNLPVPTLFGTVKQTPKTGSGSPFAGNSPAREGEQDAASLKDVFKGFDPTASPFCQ
UniProt O75362: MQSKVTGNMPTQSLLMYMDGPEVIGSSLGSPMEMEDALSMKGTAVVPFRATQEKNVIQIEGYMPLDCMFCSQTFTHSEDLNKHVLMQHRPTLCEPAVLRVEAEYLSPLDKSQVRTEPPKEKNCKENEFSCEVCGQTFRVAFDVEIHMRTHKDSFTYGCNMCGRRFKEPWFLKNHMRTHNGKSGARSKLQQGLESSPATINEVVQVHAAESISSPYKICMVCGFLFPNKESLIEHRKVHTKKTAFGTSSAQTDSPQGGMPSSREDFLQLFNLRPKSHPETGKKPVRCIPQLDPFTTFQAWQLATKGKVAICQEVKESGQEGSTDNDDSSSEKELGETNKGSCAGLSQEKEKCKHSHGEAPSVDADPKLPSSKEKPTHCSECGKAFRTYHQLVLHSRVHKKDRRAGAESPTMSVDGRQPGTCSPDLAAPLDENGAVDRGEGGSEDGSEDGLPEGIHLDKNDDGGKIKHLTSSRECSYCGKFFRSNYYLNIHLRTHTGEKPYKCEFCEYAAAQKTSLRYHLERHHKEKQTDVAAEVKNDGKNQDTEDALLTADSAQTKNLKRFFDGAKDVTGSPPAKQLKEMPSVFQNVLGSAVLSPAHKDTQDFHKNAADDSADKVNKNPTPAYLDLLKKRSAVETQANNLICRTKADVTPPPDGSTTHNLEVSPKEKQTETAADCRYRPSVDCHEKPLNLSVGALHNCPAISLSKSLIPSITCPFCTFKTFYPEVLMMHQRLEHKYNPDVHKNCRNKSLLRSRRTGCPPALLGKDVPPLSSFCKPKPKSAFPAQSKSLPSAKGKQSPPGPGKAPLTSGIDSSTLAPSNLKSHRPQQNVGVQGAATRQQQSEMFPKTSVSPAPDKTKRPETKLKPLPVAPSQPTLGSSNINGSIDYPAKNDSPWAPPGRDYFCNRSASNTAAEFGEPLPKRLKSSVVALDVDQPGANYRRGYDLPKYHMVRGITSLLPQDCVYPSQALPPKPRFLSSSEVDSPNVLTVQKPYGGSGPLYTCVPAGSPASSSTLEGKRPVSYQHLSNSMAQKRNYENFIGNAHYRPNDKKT

Key:
Assay in all cases: log2 fold change, soluble protein after heating vs DMSO (PISA); higher = thermal stabilisation; K562 cells, 10 uM, 30 min; active = over 0.2 and 3.5 SD of the protein, either way, in both replicates (recomputed)
[1] = compound: C1=CC=C(C=C1)[C@H](COC2=CC3=C(C=C2)NC(=O)N3)NC(=O)C4=CC=CN(C4=O)CC5=CC(=C(C=C5)F)F
Outline: (§1)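 K562 cells at 2×10^6 cells/mL were treated for 30 min with 10 μM compound, and aliquots were heated for 3 min over 48°C-58°C before pooling. Extraction used PBS with 0.5% NP-40 at 4°C, and soluble protein was the supernatant after 21,000xg for 90 min, measured by TMTpro 16plex LC-MS/MS with channel sums equalised. Thermal stability values, relative to control samples and from duplicates, are log2 fold changes.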

[2] = compound: CC1=C(SC2=C1C(=N[C@H](C3=NN=C(N32)C)CC(=O)N)C4=CC=C(C=C4)Cl)C
Outline: as §1

[3] = compound: CC1=C2C(=CC=C1)N=C(N(C2=O)C3=CC=CC=C3C)CN4C=NC5=C(N=CN=C54)N
Outline: as §1

[4] = compound: Cc1sc2c(c1C)C(c1ccc(Cl)cc1)=N[C@@H](CC(=O)OC(C)(C)C)c1nnc(C)n1-2
Outline: as §1

[5] = compound: c1ccc([C@@H]2C[C@H]2NC2CCNCC2)cc1
Outline: as §1

Row | Target | log2 fold change [1] | log2 fold change [2] | log2 fold change [3] | log2 fold change [4] | log2 fold change [5]
1 | XPNPEP3 (UniProt Q9NQH7) | inactive: -0.004 | inactive: 0.018 | inactive: 0.07 | inactive: -0.009 | inactive: 0.006
2 | XRN1 (UniProt Q8IZH2) | inactive: -0.265 | inactive: -0.016 | inactive: 0.133 | inactive: 0.156 | inactive: 0.062
3 | ZFAND2B (UniProt Q8WV99) | inactive: -0.061 | inactive: 0.014 | inactive: -0.034 | inactive: 0.028 | inactive: 0.035
4 | ZFYVE27 isoform 2 (UniProt Q5T4F4) | inactive: -0.015 | inactive: 0.087 | inactive: 0.086 | inactive: -0.036 | inactive: 0.059
5 | YTHDF2 (UniProt Q9Y5A9) | inactive: 0 | inactive: 0.004 | inactive: -0.038 | inactive: -0.014 | inactive: -0.019
6 | ZDHHC20 (UniProt Q5W0Z9) | inactive: -0.023 | inactive: -0.001 | inactive: -0.047 | inactive: -0.061 | inactive: 0.067
7 | ZFYVE9 (UniProt O95405) | inactive: 0.089 | inactive: 0.104 | inactive: 0.04 | inactive: -0.056 | inactive: -0.063
8 | ZC3H4 (UniProt Q9UPT8) | inactive: 0.064 | inactive: -0.176 | inactive: -0.162 | inactive: 0.064 | inactive: 0.042
9 | ZNF217 (UniProt O75362) | inactive: -0.017 | inactive: 0.048 | inactive: 0.163 | inactive: -0.003 | active: 0.306

Reformatted as a markdown table: entries from further up.

| Row | Target | log2 fold change [1] | log2 fold change [2] | log2 fold change [3] | log2 fold change [4] | log2 fold change [5] |
| --- | --- | --- | --- | --- | --- | --- |
| 1 | XPNPEP3 (UniProt Q9NQH7) | inactive: -0.004 | inactive: 0.018 | inactive: 0.07 | inactive: -0.009 | inactive: 0.006 |
| 2 | XRN1 (UniProt Q8IZH2) | inactive: -0.265 | inactive: -0.016 | inactive: 0.133 | inactive: 0.156 | inactive: 0.062 |
